Test results from PMC7819943, “Rice protein-binding microarrays: a tool to detect cis-acting elements near promoter regions in rice”.
The list shows a part of the results.

Target: T1, OsSMF1 (Oryza sativa, UniProt Q6ZLB0 1-436)
T1 sequence: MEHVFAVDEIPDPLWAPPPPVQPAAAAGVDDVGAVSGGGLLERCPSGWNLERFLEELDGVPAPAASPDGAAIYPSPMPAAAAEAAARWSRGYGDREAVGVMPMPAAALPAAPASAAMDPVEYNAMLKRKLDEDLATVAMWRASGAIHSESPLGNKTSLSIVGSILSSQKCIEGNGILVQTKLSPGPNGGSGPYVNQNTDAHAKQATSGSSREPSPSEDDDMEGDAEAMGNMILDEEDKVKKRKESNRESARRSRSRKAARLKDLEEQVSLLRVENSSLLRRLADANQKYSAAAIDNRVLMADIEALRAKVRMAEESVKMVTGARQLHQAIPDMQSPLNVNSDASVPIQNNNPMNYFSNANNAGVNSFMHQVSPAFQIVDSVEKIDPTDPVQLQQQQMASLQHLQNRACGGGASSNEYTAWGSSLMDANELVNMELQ
Experiment: protein-binding microarray (RPBM); PBS, 2% BSA, 51.3 ng/ul salmon testes DNA, 50 uM zinc acetate, 200 nM TF, 25 C, 1 h; high values mean tight binding
Settings: protein: recombinant; tags: N-terminal polyhistidine and DsRed monomer fusion (pET32a); chain copies: 2; label: CyDye5-dUTP incorporated in the synthesized complementary strand; 3' TTTTT single-stranded linker to array surface; dsDNA, one strand shown
Summary of the method: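 Ni–NTA purification followed expression in E. coli BL21-CodonPlus of transcription factors fused N-terminally to a polyhistidine tag and DsRed. At 200 nM in PBS with 2% BSA, salmon testes DNA and 50 µM zinc acetate, the protein was incubated for 1 h at 25 °C with a custom Agilent array that had been primer-extended with Cy5-dUTP and blocked with 2% BSA. After washing, the array was read on an Axon 4000B scanner. The binding signal is per-feature fluorescence intensity in arbitrary units.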

Sequence	binding signal
CCGCGCGGAGCATTCTCCCTGTAAACCTACAAATGTTATACGGAGTCACCTAGTGCAG	3220 fluorescence intensity (a.u.)
GAGGGTCTCGGTGACGGCGGCGACGGAAGCGGGGTCGGGGCGGAGTCACCTAGTGCAG	3930 fluorescence intensity (a.u.)
GAGCTTATGACGACTCCAAACCATCGTCAGCTAGTTGCTCCGGAGTCACCTAGTGCAG	5280 fluorescence intensity (a.u.)
GAGAAGGAGGCGGTCCCACGCCATCTGCTCGGATGTCCCCCGGAGTCACCTAGTGCAG	3940 fluorescence intensity (a.u.)
TCATCCCCTGATCGTCATCAGCATTCTCACCGTCGGCGCTCGGAGTCACCTAGTGCAG	4690 fluorescence intensity (a.u.)
AATCAATTCTAGATGATTCACCTTATTTGGTCGGTGTGATCGGAGTCACCTAGTGCAG	3530 fluorescence intensity (a.u.)
CAGCCATCCATCCCACCCACACGTCACCACCCGCGCATCCCGGAGTCACCTAGTGCAG	20500 fluorescence intensity (a.u.)
ATAACCCTCCTGCTTTCTAATCAGTGATGACACACACAAACGGAGTCACCTAGTGCAG	4940 fluorescence intensity (a.u.)
AAAACAAATAAGCCCATAGTTCTCACTAAAGTGCTGAATTCGGAGTCACCTAGTGCAG	3280 fluorescence intensity (a.u.)
CACTGGCCAACGAGCTTCTGGGTTGTGCCGGGTCGAGGCCCGGAGTCACCTAGTGCAG	27000 fluorescence intensity (a.u.)
AGGAAATTAGGCTAGGGTTTTCGCCATGGCTACCACCCACCGGAGTCACCTAGTGCAG	3300 fluorescence intensity (a.u.)
GAAGTCGCCGCTGCCGTCCTTGGCCACCGTCACGTTCGGGCGGAGTCACCTAGTGCAG	4270 fluorescence intensity (a.u.)
TAATAGGTCCAGTTGTTTATTAAAGTGGCACGTGGCGTTTCGGAGTCACCTAGTGCAG	8950 fluorescence intensity (a.u.)
TGTGCCAAGCAAATGCTCCTCCACGTGAGCGATGATAATGCGGAGTCACCTAGTGCAG	4700 fluorescence intensity (a.u.)
CACCACACGAAGCAGCCACGAACGCAACGCGGGTGCGTCGCGGAGTCACCTAGTGCAG	3140 fluorescence intensity (a.u.)
GGACGACGCGTTGACAGAGGAAGGCTTCAGCCACATCATCCGGAGTCACCTAGTGCAG	7530 fluorescence intensity (a.u.)
ATATTAATTTGGTATTGGAGTATACCACTGAGCAATTGCACGGAGTCACCTAGTGCAG	3220 fluorescence intensity (a.u.)
CCTTCCACCTAGGATAGTGTCTATGGCATTAACTACATTGCGGAGTCACCTAGTGCAG	4860 fluorescence intensity (a.u.)
TACACATGATGACATACAAGGACACCATCTGGTCCAAATGCGGAGTCACCTAGTGCAG	3600 fluorescence intensity (a.u.)
TCCTTCACCGGTGAAGCGAACAAGGGTGACAGATCCGGAGCGGAGTCACCTAGTGCAG	3770 fluorescence intensity (a.u.)
CAGCCCGACGGCAGGAGAAACTACGCCGTCGTGGCAATCGCGGAGTCACCTAGTGCAG	3660 fluorescence intensity (a.u.)

Sequence	binding signal
TTCTCCACATGCACTGTCGTTATCAATGTCAAATATACCTCGGAGTCACCTAGTGCAG	3600 fluorescence intensity (a.u.)
TTCTACTCAAGTTGGCACACGCCGTTTACACAAACCACACCGGAGTCACCTAGTGCAG	3550 fluorescence intensity (a.u.)
TTTTAGCACTGACTTATAGATCAAACACGTGTATAAAAGTCGGAGTCACCTAGTGCAG	6020 fluorescence intensity (a.u.)
CTCCACGTCCGCGACCTCTCCTTCCTCCGCCCACGCCGCCCGGAGTCACCTAGTGCAG	20600 fluorescence intensity (a.u.)
TTTTCCAACTTACCTCCTTCATTTTCCACGCGCACATTTTCGGAGTCACCTAGTGCAG	65500 fluorescence intensity (a.u.)
ATATGTGAAAGTGTGGTATGTGTTTCACACGTGTGCATCTCGGAGTCACCTAGTGCAG	10200 fluorescence intensity (a.u.)
CGTGGTGGACGGCCTCGACGAGGCGATCTGCCCGGTGGCGCGGAGTCACCTAGTGCAG	3240 fluorescence intensity (a.u.)
AACGCATCGTCTCCTCTCCGCCGCCGCAGCGGAAGCGGAACGGAGTCACCTAGTGCAG	3780 fluorescence intensity (a.u.)
GTAGCATTGCGCGTGACGGCAGCAATGGCTTGACTTCCCACGGAGTCACCTAGTGCAG	3910 fluorescence intensity (a.u.)
TATATAGGGCTGGATGGAAAGTTGGTGACTCTTAGCTCAGCGGAGTCACCTAGTGCAG	4870 fluorescence intensity (a.u.)
TTAATGTCCGAACACCTCATACAACGTGACGCGTCAAAACCGGAGTCACCTAGTGCAG	6890 fluorescence intensity (a.u.)
ATTACGTGATGAACTGATTCTTGGACATAGAGATACGTGTCGGAGTCACCTAGTGCAG	3560 fluorescence intensity (a.u.)
GACGATCCCCATACTATGCAAATACCAGAATGACGACATCCGGAGTCACCTAGTGCAG	3880 fluorescence intensity (a.u.)
TTTGATGTGTTCAACTTGTCTTCGAACTACACTCTCTTCTCGGAGTCACCTAGTGCAG	3730 fluorescence intensity (a.u.)
CATTGCTCAACAAACTCATGTCACGTCATCCAGGGACAGACGGAGTCACCTAGTGCAG	5580 fluorescence intensity (a.u.)
GTGTTGGTTATGTACCTCATACTGTGCATGATTTGTCCCTCGGAGTCACCTAGTGCAG	3220 fluorescence intensity (a.u.)
CCTTCCACGCCACCTCTCCCCTTCCCACAGTCCCACGTCGCGGAGTCACCTAGTGCAG	4150 fluorescence intensity (a.u.)
TTTTGGATGTCACATCGGATGTTTGACCGGATATTGGATGCGGAGTCACCTAGTGCAG	3230 fluorescence intensity (a.u.)
ATAACTCATGGGAGCTGTCGAGCTGATGAGATGTCATGCACGGAGTCACCTAGTGCAG	3400 fluorescence intensity (a.u.)
AATAATCGAATCCAATCCATCTTCCACGCGCATTCCGGATCGGAGTCACCTAGTGCAG	3350 fluorescence intensity (a.u.)
TGCGGTTCCGTGTCGTCCAAATTAATGTGTCACTGTTAATCGGAGTCACCTAGTGCAG	4710 fluorescence intensity (a.u.)

A second format for part of the listing above.
Sequence,binding signal
TCATCCCCTGATCGTCATCAGCATTCTCACCGTCGGCGCTCGGAGTCACCTAGTGCAG,4690 fluorescence intensity (a.u.)
AATCAATTCTAGATGATTCACCTTATTTGGTCGGTGTGATCGGAGTCACCTAGTGCAG,3530 fluorescence intensity (a.u.)
